From publication PMC12274486, “A glyoxal-specific aldehyde signaling axis in Pseudomonas aeruginosa that influences quorum sensing and infection” (Nature Communications, 2025)
Results are given in words; binding and its absence hold for the method and conditions named. In cells and extracts the contact can be indirect. These calls come from enrichment with a bait or labelling near it, and not all partners need be listed. Where a sequence is shown, tags or fusion partners need not be part of it.

Target: T1, ArqI-BirA*-FLAG fusion protein (Pseudomonas aeruginosa MPAO1)
T1 sequence: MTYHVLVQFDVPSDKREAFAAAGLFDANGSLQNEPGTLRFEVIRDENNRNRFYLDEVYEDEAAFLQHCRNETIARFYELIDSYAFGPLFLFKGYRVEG
Assay: proximity labelling; BioID in P. aeruginosa MPAO1: ArqI-BirA*-FLAG or BirA*-FLAG co-expressed with PqsA-HA, 50 µM biotin; anti-HA immunoprecipitation, then streptavidin-HRP blot

B1: HA-tagged PqsA (enzyme, UniProt Q9I4X3 1-517)
chain: MSTLANLTEVLFRLDFDPDTAVYHYRGQTLSRLQCRTYILSQASQLARLLKPGDRVVLALNDSPSLACLFLACIAVGAIPAVINPKSREQALADIAADCQASLVVREADAPSLSGPLAPLTLRAAAGRPLLDDFSLDALVGPADLDWSAFHRQDPAAACFLQYTSGSTGAPKGVMHSLRNTLGFCRAFATELLALQAGDRLYSIPKMFFGYGMGNSLFFPWFSGASALLDDTWPSPERVLENLVAFRPRVLFGVPAIYASLRPQARELLSSVRLAFSAGSPLPRGEFEFWAAHGLEICDGIGATEVGHVFLANRPGQARADSTGLPLPGYECRLVDREGHTIEEAGRQGVLLVRGPGLSPGYWRASEEQQARFAGGWYRTGDLFERDESGAYRHCGREDDLFKVNGRWVVPTQVEQAICRHLPEVSEAVLVPTCRLHDGLRPTLFVTLATPLDDNQILLAQRIDQHLAEQIPSHMLPSQLHVLPALPRNDNGKLARAELRHLADTLYHDNLPEERAC
binding: binds
